The values that follow are results of earlier work, collected in article PMC11263240 (Pharmaceutical Research, 2024).

For series [1] the following is noted: ciprofloxacin 7 mg/kg intravenous, tariquidar 15 mg/kg, male Wistar rats; cited from earlier work.
The conditions of series [2]: cited from earlier work.

`O=C(O)c1cn(C2CC2)c2cc(N3CCNCC3)c(F)cc2c1=O` [ciprofloxacin]: in series [1], the “plasma AUC0-∞ with tariquidar co-administration” value is on record as “significantly higher”. In series [2], the “effect of tariquidar on plasma pharmacokinetics” value was “no effect”.
